Small-molecule microarray binding calls

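The test is a small-molecule microarray: each compound is printed twice on a reactive slide, and binding shows as fluorescence of the labelled oligonucleotide after washing. For the PreQ1, TPP and SAM-II riboswitches the laboratory earlier reported (doi:10.1038/s41467-019-09493-3) 1 µM RNA, 2 h, and a rule that included a mean Z-score above 3 (spot signal-to-noise against the whole library), a score well above that on a control array, and duplicate spots agreeing (coefficient of variation under 100). The data file gives only the calls; its cut-offs may differ, and compounds hitting several targets are kept. These are primary screening calls, not affinities; a compound without a hit may have attached poorly or may still bind in solution.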 “active” means called a hit, “inactive” means screened and not called a hit. The compounds are a random part of those screened. A target missing from an entry has no call listed here.

Targets, with sequences 5′ to 3′:
T1: TPP riboswitch RNA three-way junction, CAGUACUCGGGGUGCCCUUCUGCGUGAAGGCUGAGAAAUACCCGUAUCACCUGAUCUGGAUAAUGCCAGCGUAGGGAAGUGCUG. About 160 hits among about 24,000 compounds.
T2: SAM-II riboswitch RNA pseudoknot, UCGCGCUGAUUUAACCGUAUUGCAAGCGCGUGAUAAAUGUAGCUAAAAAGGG. About 200 hits among about 21,000 compounds.
T3: PreQ1 riboswitch RNA pseudoknot, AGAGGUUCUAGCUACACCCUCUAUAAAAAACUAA. From B. subtilis. About 170 hits among about 24,000 compounds.

* CC(C)c1ccc(-c2c(NCCN3CCCCC3C)c(=O)c2=O)cc1 (centres undefined) | T1: inactive; T3: inactive
* Cc1nc(-c2cc3cccc(C)c3nc2NCc2cccc(F)c2)no1 | T1: inactive; T3: inactive
* CCN1CCCC(NC2=CC(=O)OC23CCCCC3)C1 (centres undefined) | T1: inactive; T2: inactive; T3: inactive
* CCC1(C)Cc2c(sc3nc(SCc4ccccc4F)nc(N)c23)CO1 (centres undefined) | T1: inactive; T2: inactive; T3: inactive
* CNCCN1C(=O)CC[C@H]2CN(C(=O)c3cnc(N(C)C)nc3C)CC[C@H]21 | T1: inactive; T2: inactive; T3: inactive
* COc1ccccc1CC(=O)N1CCC2(CC1)[C@H](O)C[C@@H]2OCCN | T1: inactive; T2: inactive; T3: inactive
* Nc1nnc(CCCNc2nccc(-c3ccncc3)n2)s1 | T1: inactive; T2: inactive; T3: inactive
* CC(=O)Nc1cc([As](=O)(O)O)ccc1O | T1: inactive; T2: inactive; T3: inactive
* COc1ccc(-c2ccc(CNCCN3CCOCC3)o2)cc1Cl | T1: inactive; T3: inactive
* CCCCSc1nc(N)cc(N2CCC(c3nc(C)n[nH]3)CC2)n1 | T1: inactive; T2: inactive; T3: inactive
* Cn1nnc2c(C(N)=O)ncn2c1=O | T1: inactive; T2: inactive; T3: inactive
* CCOC(=O)N1CCC(Nc2c(N3CCN(c4ccc(C(C)=O)cc4)CC3)c(=O)c2=O)CC1 | T1: inactive; T3: inactive
* Cc1cccc(OCC(O)Cn2c(C)nc3ccccc32)c1 (centres undefined) | T1: inactive; T2: inactive; T3: inactive
* C[C@@H]1[C@@H](CC(C[C@H]2O[C@@H]3O[C@]4(C)CC[C@@H]5[C@H](C)CC[C@@H]([C@H]2C)[C@@]35OO4)C[S+](=O)([O-])c2ccc(COC(=O)N(C)C)cc2)O[C@@H]2O[C@]3(C)CC[C@H]4[C@H](C)CC[C@@H]1[C@@]24OO3 (some centres undefined) | T1: inactive; T2: inactive; T3: inactive
* COC(=O)c1cc(NC2c3ccccc3C(=O)N2CCN2CCOCC2)cc(C(=O)OC)c1 (centres undefined) | T1: inactive; T2: inactive; T3: inactive
* COc1ccccc1N(CC(O)CN1CCCCC1)S(=O)(=O)c1ccc(C)cc1 (centres undefined) | T1: active; T2: active; T3: active
* Oc1ccnc2c(Cl)cccc12 | T1: inactive; T2: inactive; T3: inactive
* Cc1ccc2c(c1)c(=O)c(C(=O)N1C[C@H](c3ccccc3)[C@@H](N)C1)cn2C | T1: inactive; T2: inactive; T3: inactive
* NCc1nc(Cc2ccccc2)no1 | T1: inactive; T2: inactive; T3: inactive
* CC(C)C1CCC(C(=O)N[C@H](Cc2ccccc2)C(=O)O)CC1 (some centres undefined) | T1: inactive; T2: inactive; T3: inactive
* O=C1c2ccccc2C(=O)c2cc(S(=O)(=O)N(CCO)Cc3ccccc3)ccc21 | T1: inactive; T2: inactive; T3: inactive
* Cc1nc2sccn2c1CN1CC[C@@H](NC(=O)c2cccnc2)[C@H](O)C1 | T1: inactive; T2: inactive; T3: inactive
* O=c1nc[nH]c2c1ncn2[C@H]1CC[C@@H](CO)O1 | T1: inactive; T2: inactive; T3: inactive

The first 2 entries again:

{"compound": "CC(C)c1ccc(-c2c(NCCN3CCCCC3C)c(=O)c2=O)cc1", "stereo": "centres undefined", "T1": "inactive", "T3": "inactive"}
{"compound": "Cc1nc(-c2cc3cccc(C)c3nc2NCc2cccc(F)c2)no1", "T1": "inactive", "T3": "inactive"}

Calls as published in the ROBIN set (doi:10.1002/anie.202211358).